Source: patent US20160054314A1
No constants are given. Whether binding was seen depends on the method and setting. Some entries that bind do so weakly or less than the wild type.

Biological target: BirA-biotinylated fd-tet-APpIII phage virion (biotin acceptor peptide fused in front of pIII) (bacteriophage fd) (UniProt P03661)
Experiment: western blot of BirA-treated phage probed with SAV-HRP

streptavidin conjugated with horseradish peroxidase (SAV-HRP) (from UniProt P22629 37-163)
binding: binds
